Experiments:
Parameters in all cases: species or system Escherichia coli
[1] = molecular target: T1, 3-hydroxy-3-methylglutaryl-coenzyme A reductase (Homo sapiens, UniProt P04035);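 further: enzyme inhibition assay of HMG-CoA reductase using radiolabeled [14C]HMG-CoA as substrate; in other assays of this panel Not Active means under 50% inhibition at 10 µM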
T1 sequence (P04035 whole entry): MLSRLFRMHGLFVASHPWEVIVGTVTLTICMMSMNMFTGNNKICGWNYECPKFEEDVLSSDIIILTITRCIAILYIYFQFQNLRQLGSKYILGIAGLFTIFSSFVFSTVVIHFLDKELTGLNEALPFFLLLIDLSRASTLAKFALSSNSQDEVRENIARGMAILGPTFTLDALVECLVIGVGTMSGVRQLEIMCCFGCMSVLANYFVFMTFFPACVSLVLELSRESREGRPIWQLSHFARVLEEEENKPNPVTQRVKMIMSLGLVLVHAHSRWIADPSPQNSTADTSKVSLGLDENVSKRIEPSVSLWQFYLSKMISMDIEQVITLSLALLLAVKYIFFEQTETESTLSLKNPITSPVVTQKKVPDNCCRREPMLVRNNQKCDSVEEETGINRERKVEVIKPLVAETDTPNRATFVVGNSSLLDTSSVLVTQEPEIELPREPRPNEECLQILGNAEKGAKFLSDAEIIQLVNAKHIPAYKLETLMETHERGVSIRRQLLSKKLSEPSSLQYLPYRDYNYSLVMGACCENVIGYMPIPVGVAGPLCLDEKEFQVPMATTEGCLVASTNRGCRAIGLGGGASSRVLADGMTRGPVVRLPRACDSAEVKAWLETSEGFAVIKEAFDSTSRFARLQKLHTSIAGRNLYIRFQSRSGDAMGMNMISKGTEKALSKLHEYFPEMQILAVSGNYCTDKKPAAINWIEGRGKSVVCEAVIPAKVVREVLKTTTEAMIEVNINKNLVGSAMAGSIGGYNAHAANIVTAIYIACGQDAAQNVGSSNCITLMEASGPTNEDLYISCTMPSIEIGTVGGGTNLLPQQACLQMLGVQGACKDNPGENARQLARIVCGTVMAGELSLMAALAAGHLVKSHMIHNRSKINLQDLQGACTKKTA

Protein sequences, listed by entry. Tags and fused reporters are not part of them.
UniProt P27361, whole entry: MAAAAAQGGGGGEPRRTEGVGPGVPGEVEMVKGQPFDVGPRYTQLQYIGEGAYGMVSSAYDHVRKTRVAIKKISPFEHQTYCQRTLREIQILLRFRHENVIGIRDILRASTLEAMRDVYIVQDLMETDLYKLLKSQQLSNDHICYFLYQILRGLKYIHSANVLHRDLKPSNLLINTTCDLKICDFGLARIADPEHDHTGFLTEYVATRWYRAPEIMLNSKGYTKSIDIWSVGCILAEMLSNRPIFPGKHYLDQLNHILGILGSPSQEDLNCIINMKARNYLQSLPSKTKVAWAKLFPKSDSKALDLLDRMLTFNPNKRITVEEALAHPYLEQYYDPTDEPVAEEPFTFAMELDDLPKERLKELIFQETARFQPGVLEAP
UniProt P28482, whole entry: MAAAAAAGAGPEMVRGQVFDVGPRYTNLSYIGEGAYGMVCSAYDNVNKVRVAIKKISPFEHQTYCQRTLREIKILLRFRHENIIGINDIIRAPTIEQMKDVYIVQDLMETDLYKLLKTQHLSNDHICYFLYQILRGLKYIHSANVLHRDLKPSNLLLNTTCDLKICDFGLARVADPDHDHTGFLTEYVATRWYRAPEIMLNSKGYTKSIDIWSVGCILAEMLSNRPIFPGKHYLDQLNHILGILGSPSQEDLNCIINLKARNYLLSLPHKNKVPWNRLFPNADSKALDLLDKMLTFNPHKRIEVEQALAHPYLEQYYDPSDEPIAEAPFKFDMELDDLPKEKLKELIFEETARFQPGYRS
UniProt Q16539, whole entry: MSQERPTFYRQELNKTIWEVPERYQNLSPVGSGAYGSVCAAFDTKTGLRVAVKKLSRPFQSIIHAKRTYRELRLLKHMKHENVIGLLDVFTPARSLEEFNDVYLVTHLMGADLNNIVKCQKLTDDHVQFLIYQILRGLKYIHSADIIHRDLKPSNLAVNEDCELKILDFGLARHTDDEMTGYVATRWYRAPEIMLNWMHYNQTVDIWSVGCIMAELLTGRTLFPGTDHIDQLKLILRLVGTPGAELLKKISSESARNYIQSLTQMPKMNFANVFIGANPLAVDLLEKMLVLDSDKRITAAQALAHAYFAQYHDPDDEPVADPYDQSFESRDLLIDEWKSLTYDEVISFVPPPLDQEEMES

[2] = molecular target: T2, Nitric oxide synthase, inducible (Mus musculus, UniProt P29477);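 further: inhibition of iNOS enzyme activity measured with L-arginine as substrate; in other assays of this panel Not Active means under 50% inhibition at 10 µM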
T2 sequence (P29477 whole entry): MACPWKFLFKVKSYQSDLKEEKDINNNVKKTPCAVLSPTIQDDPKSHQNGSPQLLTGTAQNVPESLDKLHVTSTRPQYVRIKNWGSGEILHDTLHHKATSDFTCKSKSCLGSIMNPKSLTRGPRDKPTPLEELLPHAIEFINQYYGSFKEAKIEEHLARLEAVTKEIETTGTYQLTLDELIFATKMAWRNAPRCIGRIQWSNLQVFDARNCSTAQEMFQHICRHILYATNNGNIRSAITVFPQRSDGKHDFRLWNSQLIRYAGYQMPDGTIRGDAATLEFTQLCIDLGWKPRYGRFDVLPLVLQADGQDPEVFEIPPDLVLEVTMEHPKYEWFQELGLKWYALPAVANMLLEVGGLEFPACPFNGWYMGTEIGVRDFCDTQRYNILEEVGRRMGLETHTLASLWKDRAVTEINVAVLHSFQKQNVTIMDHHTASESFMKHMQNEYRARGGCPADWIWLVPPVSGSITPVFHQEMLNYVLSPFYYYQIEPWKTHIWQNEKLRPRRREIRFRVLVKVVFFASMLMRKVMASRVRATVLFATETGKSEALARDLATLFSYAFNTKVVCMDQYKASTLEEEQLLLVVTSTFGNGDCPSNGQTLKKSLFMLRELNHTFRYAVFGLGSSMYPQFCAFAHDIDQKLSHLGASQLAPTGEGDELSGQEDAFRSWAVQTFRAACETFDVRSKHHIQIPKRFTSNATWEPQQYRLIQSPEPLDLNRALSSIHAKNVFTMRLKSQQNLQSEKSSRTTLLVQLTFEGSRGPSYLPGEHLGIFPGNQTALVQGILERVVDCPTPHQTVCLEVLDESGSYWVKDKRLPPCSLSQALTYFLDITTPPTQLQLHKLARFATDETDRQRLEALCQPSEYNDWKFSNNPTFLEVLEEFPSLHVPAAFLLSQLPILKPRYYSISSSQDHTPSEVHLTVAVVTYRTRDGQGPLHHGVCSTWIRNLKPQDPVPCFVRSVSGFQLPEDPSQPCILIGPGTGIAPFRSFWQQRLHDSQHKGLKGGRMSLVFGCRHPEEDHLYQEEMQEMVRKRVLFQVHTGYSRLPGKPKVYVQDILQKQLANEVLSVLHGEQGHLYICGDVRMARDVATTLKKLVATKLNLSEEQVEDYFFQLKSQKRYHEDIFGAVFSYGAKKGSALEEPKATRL

Caspase-1 = molecular target: T3, Caspase-1 (Homo sapiens, UniProt P29466);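 further: Caspase-1 enzyme inhibition assay with a peptide substrate; in other assays of this panel Not Active means under 50% inhibition at 10 µM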
T3 sequence (P29466 whole entry): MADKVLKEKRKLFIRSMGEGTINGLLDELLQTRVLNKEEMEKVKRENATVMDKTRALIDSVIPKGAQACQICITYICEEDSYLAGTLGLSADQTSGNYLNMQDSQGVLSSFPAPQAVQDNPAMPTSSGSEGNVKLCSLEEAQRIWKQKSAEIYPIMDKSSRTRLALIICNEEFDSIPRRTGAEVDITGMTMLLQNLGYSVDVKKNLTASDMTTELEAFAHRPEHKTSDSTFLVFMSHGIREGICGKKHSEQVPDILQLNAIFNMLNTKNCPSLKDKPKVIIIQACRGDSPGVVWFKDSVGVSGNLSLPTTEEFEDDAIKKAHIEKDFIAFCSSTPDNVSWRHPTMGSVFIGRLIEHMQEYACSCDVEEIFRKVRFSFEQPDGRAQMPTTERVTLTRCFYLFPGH

[3] = molecular target: Mitogen-activated protein kinase 3 (Homo sapiens, UniProt P27361); experiment: DRUGMATRIX: Protein Serine/Threonine Kinase, ERK1 enzyme inhibition (substrate: Myelin Basic Protein); conditions: Not Active = under 50% inhibition at 10 µM
[4] = molecular target: Mitogen-activated protein kinase 1 (Homo sapiens, UniProt P28482); experiment: DRUGMATRIX: Protein Serine/Threonine Kinase, ERK2 enzyme inhibition (substrate: Myelin Basic Protein); conditions: Not Active = under 50% inhibition at 10 µM
[5] = molecular target: Mitogen-activated protein kinase 14 (Homo sapiens, UniProt Q16539);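 further: inhibition of p38alpha enzyme activity in a biochemical kinase assay, with myelin basic protein serving as substrate; in other assays of this panel Not Active means under 50% inhibition at 10 µM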
[6] = molecular target: Protein phosphatase 3 catalytic subunit alpha (Homo sapiens, UniProt Q08209)
[7] = molecular target: T4, Receptor-type tyrosine-protein phosphatase C (Homo sapiens, UniProt P08575)
T4 sequence (P08575 whole entry): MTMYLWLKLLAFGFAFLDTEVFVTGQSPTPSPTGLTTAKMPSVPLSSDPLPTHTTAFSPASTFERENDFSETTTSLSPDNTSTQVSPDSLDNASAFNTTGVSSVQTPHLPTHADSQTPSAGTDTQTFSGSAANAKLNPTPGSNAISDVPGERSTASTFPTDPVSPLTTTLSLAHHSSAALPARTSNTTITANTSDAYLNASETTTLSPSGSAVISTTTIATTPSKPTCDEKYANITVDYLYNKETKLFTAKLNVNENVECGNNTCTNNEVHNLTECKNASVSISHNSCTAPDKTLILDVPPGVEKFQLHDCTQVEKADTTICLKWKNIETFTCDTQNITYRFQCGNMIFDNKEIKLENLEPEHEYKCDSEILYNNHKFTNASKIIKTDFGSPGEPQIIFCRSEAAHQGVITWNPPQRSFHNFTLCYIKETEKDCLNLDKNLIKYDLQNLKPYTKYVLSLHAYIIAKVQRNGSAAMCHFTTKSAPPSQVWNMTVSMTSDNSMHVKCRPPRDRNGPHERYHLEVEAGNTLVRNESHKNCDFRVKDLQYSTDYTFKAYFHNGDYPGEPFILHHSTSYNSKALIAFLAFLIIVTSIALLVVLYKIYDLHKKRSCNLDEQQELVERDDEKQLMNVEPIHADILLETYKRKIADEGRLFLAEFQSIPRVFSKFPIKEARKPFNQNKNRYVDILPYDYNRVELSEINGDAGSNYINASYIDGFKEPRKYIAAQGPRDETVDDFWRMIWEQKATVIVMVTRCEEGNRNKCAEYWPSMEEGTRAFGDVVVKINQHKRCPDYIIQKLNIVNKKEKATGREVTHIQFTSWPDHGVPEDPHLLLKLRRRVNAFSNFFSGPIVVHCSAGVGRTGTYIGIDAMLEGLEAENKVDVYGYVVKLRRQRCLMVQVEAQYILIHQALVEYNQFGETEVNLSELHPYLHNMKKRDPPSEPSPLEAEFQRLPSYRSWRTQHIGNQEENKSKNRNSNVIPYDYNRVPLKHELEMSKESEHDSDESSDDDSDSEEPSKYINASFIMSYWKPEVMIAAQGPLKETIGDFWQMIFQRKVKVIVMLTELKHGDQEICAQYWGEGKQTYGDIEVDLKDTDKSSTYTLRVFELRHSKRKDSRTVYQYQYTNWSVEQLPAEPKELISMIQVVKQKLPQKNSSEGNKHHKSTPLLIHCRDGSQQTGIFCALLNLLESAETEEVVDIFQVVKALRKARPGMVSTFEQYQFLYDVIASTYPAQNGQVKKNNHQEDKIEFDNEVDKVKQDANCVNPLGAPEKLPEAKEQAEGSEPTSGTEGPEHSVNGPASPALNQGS

Measured: IC50

Cc1cnc(C(=O)NCCc2ccc(S(=O)(=O)NC(=O)NC3CCCCC3)cc2)cn1 [GLIPIZIDE]
Not Active: all assays above

Source: ChEMBL document CHEMBL1909046, “DrugMatrix in vitro pharmacology data”
